Laboratory results reported in the supplement of paper PMC7661543.
± gives the standard deviation of the averaged measurements. The effect of the compound repeats well; differences between the knockouts mostly do not.

Tested on: HCC-38
Assay: relative cell number vs DMSO control (72 h) (% of DMSO); higher = less growth inhibition (more cells)
Method: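 QMAP-Seq: a pool of 5 breast cancer cell lines (ZR-75-1, SKBR3, HCC-38, MDA-MB-231, BT-20), each carrying 12 doxycycline-inducible Cas9 sgRNA perturbations (11 knockouts plus non-targeting sgNT), was treated with compounds for 72 h at four 10-fold doses (10 nM-10 uM or 1 nM-1 uM range). Barcodes were amplified and sequenced, and cell number was interpolated from 293T spike-in standard curves. The result is expressed as % of the median of DMSO wells. Two biological replicates.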

[1] = sgRNA knockout: sgATF3, 1000 nM
[2] = sgRNA knockout: sgATF3, 10000 nM
[3] = sgRNA knockout: sgATF4, 1000 nM
[4] = sgRNA knockout: sgATF4, 10000 nM
[5] = sgRNA knockout: sgATF6, 1000 nM
[6] = sgRNA knockout: sgATF6, 10000 nM
[7] = sgRNA knockout: sgATG7, 1000 nM
[8] = sgRNA knockout: sgATG7, 10000 nM
[9] = sgRNA knockout: sgERN1, 1000 nM
[10] = sgRNA knockout: sgERN1, 10000 nM
[11] = sgRNA knockout: sgHSF1, 1000 nM
[12] = sgRNA knockout: sgHSF1, 10000 nM
[13] = sgRNA knockout: sgHSF2, 1000 nM
[14] = sgRNA knockout: sgHSF2, 10000 nM
[15] = sgRNA knockout: sgKEAP1, 100 nM
[16] = sgRNA knockout: sgKEAP1, 1000 nM
[17] = sgRNA knockout: sgKEAP1, 10000 nM
[18] = sgRNA knockout: sgNFE2L2, 10 nM
[19] = sgRNA knockout: sgNFE2L2, 100 nM
[20] = sgRNA knockout: sgNFE2L2, 1000 nM
[21] = sgRNA knockout: sgNFE2L2, 10000 nM
[22] = sgRNA knockout: sgSLC35F2, 10 nM
[23] = sgRNA knockout: sgSLC35F2, 100 nM
[24] = sgRNA knockout: sgSLC35F2, 1000 nM
[25] = sgRNA knockout: sgSLC35F2, 10000 nM
[26] = sgRNA knockout: sgXBP1, 1000 nM
[27] = sgRNA knockout: sgXBP1, 10000 nM

Cc1cn(-c2cc(NC(=O)c3ccc(C)c(Nc4nccc(-c5cccnc5)n4)c3)cc(C(F)(F)F)c2)cn1 [Nilotinib]
relative cell number (sgRNA knockout: sgATF3, 10 nM): 107 ± 2.8 | relative cell number (sgRNA knockout: sgATF3, 100 nM): 94.5 ± 10 | relative cell number [1]: 106 ± 6.4 | relative cell number [2]: 90.1 ± 35 | relative cell number (sgRNA knockout: sgATF4, 10 nM): 101 ± 2.8 | relative cell number (sgRNA knockout: sgATF4, 100 nM): 94.1 ± 5.8 | relative cell number [3]: 94.9 ± 13 | relative cell number [4]: 94.2 ± 38 | relative cell number (sgRNA knockout: sgATF6, 10 nM): 103 ± 10 | relative cell number (sgRNA knockout: sgATF6, 100 nM): 108 ± 2.4 | relative cell number [5]: 114 ± 5 | relative cell number [6]: 92.8 ± 8.9 | relative cell number (sgRNA knockout: sgATG7, 10 nM): 97.42 ± 0.08 | relative cell number (sgRNA knockout: sgATG7, 100 nM): 102 ± 13 | relative cell number [7]: 102 ± 3.4 | relative cell number [8]: 85 ± 27 | relative cell number (sgRNA knockout: sgERN1, 10 nM): 89.4 ± 7.3 | relative cell number (sgRNA knockout: sgERN1, 100 nM): 108 ± 7.8 | relative cell number [9]: 108 ± 0.71 | relative cell number [10]: 82.2 ± 20 | relative cell number (sgRNA knockout: sgHSF1, 10 nM): 117 ± 11 | relative cell number (sgRNA knockout: sgHSF1, 100 nM): 109 ± 1.9 | relative cell number [11]: 108 ± 13 | relative cell number [12]: 84.8 ± 7 | relative cell number (sgRNA knockout: sgHSF2, 10 nM): 108 ± 8.1 | relative cell number (sgRNA knockout: sgHSF2, 100 nM): 104.2 ± 0.32 | relative cell number [13]: 103 ± 14 | relative cell number [14]: 94.6 ± 28 | relative cell number (sgRNA knockout: sgKEAP1, 10 nM): 99.7 ± 3.6 | relative cell number [15]: 113 ± 20 | relative cell number [16]: 120 ± 18 | relative cell number [17]: 65.56 ± 0.45 | relative cell number [18]: 92.2 ± 4.3 | relative cell number [19]: 90.3 ± 8.3 | relative cell number [20]: 103 ± 13 | relative cell number [21]: 100 ± 42 | relative cell number [22]: 91.7 ± 12 | relative cell number [23]: 95.6 ± 8.5 | relative cell number [24]: 108 ± 4.9 | relative cell number [25]: 97.1 ± 36 | relative cell number (sgRNA knockout: sgXBP1, 10 nM): 96.1 ± 9.7 | relative cell number (sgRNA knockout: sgXBP1, 100 nM): 91.9 ± 16 | relative cell number [26]: 96.2 ± 3.3 | relative cell number [27]: 99.3 ± 31

Cn1nnc2c(C(N)=O)ncn2c1=O [Temozolomide]
relative cell number (sgRNA knockout: sgATF3, 10 nM): 125 ± 18 | relative cell number (sgRNA knockout: sgATF3, 100 nM): 92.3 ± 9 | relative cell number [1]: 119 ± 7.2 | relative cell number [2]: 140 ± 19 | relative cell number (sgRNA knockout: sgATF4, 10 nM): 118 ± 5.8 | relative cell number (sgRNA knockout: sgATF4, 100 nM): 89.2 ± 6 | relative cell number [3]: 119.9 ± 0.66 | relative cell number [4]: 139 ± 15 | relative cell number (sgRNA knockout: sgATF6, 10 nM): 126 ± 5.6 | relative cell number (sgRNA knockout: sgATF6, 100 nM): 105 ± 4.5 | relative cell number [5]: 137 ± 30 | relative cell number [6]: 142 ± 24 | relative cell number (sgRNA knockout: sgATG7, 10 nM): 119 ± 16 | relative cell number (sgRNA knockout: sgATG7, 100 nM): 90 ± 5.4 | relative cell number [7]: 116 ± 2.1 | relative cell number [8]: 140 ± 19 | relative cell number (sgRNA knockout: sgERN1, 10 nM): 118.2 ± 0.97 | relative cell number (sgRNA knockout: sgERN1, 100 nM): 95.5 ± 5.8 | relative cell number [9]: 130 ± 27 | relative cell number [10]: 145 ± 18 | relative cell number (sgRNA knockout: sgHSF1, 10 nM): 121 ± 3.9 | relative cell number (sgRNA knockout: sgHSF1, 100 nM): 111 ± 7.3 | relative cell number [11]: 120 ± 8.7 | relative cell number [12]: 173 ± 64 | relative cell number (sgRNA knockout: sgHSF2, 10 nM): 127.8 ± 1 | relative cell number (sgRNA knockout: sgHSF2, 100 nM): 108.2 ± 0.94 | relative cell number [13]: 127 ± 4.1 | relative cell number [14]: 138 ± 28 | relative cell number (sgRNA knockout: sgKEAP1, 10 nM): 150 ± 28 | relative cell number [15]: 127 ± 18 | relative cell number [16]: 148 ± 9.1 | relative cell number [17]: 181 ± 41 | relative cell number [18]: 117 ± 15 | relative cell number [19]: 87.1 ± 4.6 | relative cell number [20]: 118 ± 8.8 | relative cell number [21]: 126 ± 14 | relative cell number [22]: 116 ± 6.1 | relative cell number [23]: 99.5 ± 4.6 | relative cell number [24]: 117 ± 8.2 | relative cell number [25]: 136 ± 20 | relative cell number (sgRNA knockout: sgXBP1, 10 nM): 121 ± 18 | relative cell number (sgRNA knockout: sgXBP1, 100 nM): 90.5 ± 6.1 | relative cell number [26]: 125 ± 5 | relative cell number [27]: 140 ± 19

Cc1cc2c(C(C)C)c(O)c(O)c(C=O)c2c(O)c1-c1c(C)cc2c(C(C)C)c(O)c(O)c(C=O)c2c1O [Gossypol]
relative cell number (sgRNA knockout: sgATF3, 10 nM): 99.7 ± 12 | relative cell number (sgRNA knockout: sgATF3, 100 nM): 93.1 ± 12 | relative cell number [1]: 102 ± 6.7 | relative cell number [2]: 26.8 ± 2.7 | relative cell number (sgRNA knockout: sgATF4, 10 nM): 99 ± 14 | relative cell number (sgRNA knockout: sgATF4, 100 nM): 95.9 ± 22 | relative cell number [3]: 103 ± 0.38 | relative cell number [4]: 28.1 ± 2 | relative cell number (sgRNA knockout: sgATF6, 10 nM): 92.817 ± 0.049 | relative cell number (sgRNA knockout: sgATF6, 100 nM): 90.4 ± 14 | relative cell number [5]: 102.6 ± 0.97 | relative cell number [6]: 34.1 ± 7.4 | relative cell number (sgRNA knockout: sgATG7, 10 nM): 99 ± 9.9 | relative cell number (sgRNA knockout: sgATG7, 100 nM): 94.3 ± 16 | relative cell number [7]: 103 ± 3.7 | relative cell number [8]: 25.9 ± 1.4 | relative cell number (sgRNA knockout: sgERN1, 10 nM): 108 ± 9.3 | relative cell number (sgRNA knockout: sgERN1, 100 nM): 94.2 ± 11 | relative cell number [9]: 106 ± 12 | relative cell number [10]: 27.1 ± 1.1 | relative cell number (sgRNA knockout: sgHSF1, 10 nM): 125 ± 6.5 | relative cell number (sgRNA knockout: sgHSF1, 100 nM): 90.5 ± 1.4 | relative cell number [11]: 96.43 ± 0.62 | relative cell number [12]: 27.2 ± 3.1 | relative cell number (sgRNA knockout: sgHSF2, 10 nM): 103 ± 14 | relative cell number (sgRNA knockout: sgHSF2, 100 nM): 100 ± 2.5 | relative cell number [13]: 101 ± 4.4 | relative cell number [14]: 29.3 ± 0.62 | relative cell number (sgRNA knockout: sgKEAP1, 10 nM): 100 ± 24 | relative cell number [15]: 121 ± 13 | relative cell number [16]: 125 ± 10 | relative cell number [17]: 32.6 ± 3.3 | relative cell number [18]: 97.7 ± 2.1 | relative cell number [19]: 86.4 ± 13 | relative cell number [20]: 101 ± 11 | relative cell number [21]: 24.7 ± 3 | relative cell number [22]: 106 ± 12 | relative cell number [23]: 95.4 ± 10 | relative cell number [24]: 97.3 ± 3.2 | relative cell number [25]: 27.3 ± 2.3 | relative cell number (sgRNA knockout: sgXBP1, 10 nM): 102 ± 10 | relative cell number (sgRNA knockout: sgXBP1, 100 nM): 92.4 ± 20 | relative cell number [26]: 101 ± 3.3 | relative cell number [27]: 26.9 ± 2.3
